No constants are given. Whether binding was seen depends on the method and setting. Binding seen in cells or lysates may run through a third protein. These calls come from enrichment with a bait or labelling near it, and not all partners need be listed.
Target: FLAG-tagged mLST8 (mammalian lethal with SEC13 protein 8), stably expressed in U251 cells (human (cDNA from U251 cells)) (UniProt Q9BVC4)
Experiment: affinity purification with mass spectrometry; FLAG-mLST8 immunoprecipitated with anti-FLAG M2 beads from U251 cells stably expressing FLAG-mLST8; lysis in 50 mM Tris-Cl pH 7.5, 150 mM KCl, 0.5% NP-40, 1 mM PMSF, 4 °C, 3 h; on-bead trypsin digest, Q-Exactive

Chains of the proteins cited; added tags and fusions are not shown.
UniProt Q9BVC4: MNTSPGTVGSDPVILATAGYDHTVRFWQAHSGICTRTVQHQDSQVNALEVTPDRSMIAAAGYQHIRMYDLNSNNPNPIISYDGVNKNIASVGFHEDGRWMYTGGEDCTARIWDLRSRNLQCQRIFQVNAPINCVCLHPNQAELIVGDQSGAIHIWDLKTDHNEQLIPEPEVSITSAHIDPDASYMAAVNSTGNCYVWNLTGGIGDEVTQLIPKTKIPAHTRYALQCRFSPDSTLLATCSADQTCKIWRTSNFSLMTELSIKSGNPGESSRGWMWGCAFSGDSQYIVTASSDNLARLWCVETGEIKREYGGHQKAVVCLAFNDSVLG
UniProt Q99832: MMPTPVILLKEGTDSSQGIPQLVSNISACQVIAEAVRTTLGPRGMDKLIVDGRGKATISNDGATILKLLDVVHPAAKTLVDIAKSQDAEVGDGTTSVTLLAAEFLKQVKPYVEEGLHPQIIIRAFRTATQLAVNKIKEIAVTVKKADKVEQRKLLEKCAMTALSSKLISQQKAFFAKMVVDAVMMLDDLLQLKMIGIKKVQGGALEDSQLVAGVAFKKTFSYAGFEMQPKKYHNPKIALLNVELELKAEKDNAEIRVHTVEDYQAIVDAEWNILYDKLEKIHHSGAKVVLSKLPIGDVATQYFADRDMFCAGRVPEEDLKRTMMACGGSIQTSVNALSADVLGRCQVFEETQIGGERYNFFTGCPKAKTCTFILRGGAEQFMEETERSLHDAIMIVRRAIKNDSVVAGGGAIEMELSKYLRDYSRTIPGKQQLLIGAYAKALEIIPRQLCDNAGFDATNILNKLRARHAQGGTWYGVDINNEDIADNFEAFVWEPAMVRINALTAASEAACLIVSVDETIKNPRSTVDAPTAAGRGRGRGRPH
UniProt P48643: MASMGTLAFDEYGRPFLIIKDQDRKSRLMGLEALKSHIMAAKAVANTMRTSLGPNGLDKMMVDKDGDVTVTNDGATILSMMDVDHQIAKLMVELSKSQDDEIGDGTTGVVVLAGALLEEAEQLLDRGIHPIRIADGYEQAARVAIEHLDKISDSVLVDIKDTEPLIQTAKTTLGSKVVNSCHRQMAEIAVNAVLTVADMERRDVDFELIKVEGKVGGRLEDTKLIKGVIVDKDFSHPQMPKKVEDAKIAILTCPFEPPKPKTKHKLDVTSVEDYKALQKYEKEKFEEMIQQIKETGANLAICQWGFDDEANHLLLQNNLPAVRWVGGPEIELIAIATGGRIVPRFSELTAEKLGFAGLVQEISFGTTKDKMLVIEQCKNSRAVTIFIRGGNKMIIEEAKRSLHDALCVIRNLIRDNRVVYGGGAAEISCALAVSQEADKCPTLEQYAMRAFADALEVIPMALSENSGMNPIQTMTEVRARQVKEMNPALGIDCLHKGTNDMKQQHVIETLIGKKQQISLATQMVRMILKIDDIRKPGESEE
UniProt P50990: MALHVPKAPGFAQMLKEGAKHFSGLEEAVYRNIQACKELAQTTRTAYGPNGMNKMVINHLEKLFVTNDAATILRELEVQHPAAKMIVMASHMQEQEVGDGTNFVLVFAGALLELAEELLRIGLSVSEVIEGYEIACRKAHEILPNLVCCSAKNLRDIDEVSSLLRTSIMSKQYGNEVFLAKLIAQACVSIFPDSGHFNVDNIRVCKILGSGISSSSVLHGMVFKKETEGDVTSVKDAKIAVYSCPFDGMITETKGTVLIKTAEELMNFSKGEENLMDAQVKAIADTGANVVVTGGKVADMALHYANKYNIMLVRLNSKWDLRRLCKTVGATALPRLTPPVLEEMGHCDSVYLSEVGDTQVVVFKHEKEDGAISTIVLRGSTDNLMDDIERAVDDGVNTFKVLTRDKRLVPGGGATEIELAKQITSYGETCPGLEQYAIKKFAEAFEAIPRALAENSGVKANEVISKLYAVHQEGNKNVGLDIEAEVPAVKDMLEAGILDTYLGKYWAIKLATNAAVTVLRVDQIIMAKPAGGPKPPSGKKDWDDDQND

Question: “CCT7, component of the CCT chaperone complex (from UniProt Q99832 1-543)” was tested. Which binding did it give?
Answer: binds

Question: For “CCT5, component of the CCT chaperone complex (from UniProt P48643 1-541)”, which binding is on record?
Answer: binds

Question: How did the binding turn out when “CCT8, component of the CCT chaperone complex (from UniProt P50990 1-548)” was run?
Answer: binds

B1: CCT2, component of the CCT chaperone complex (protein, UniProt P78371 1-535)
chain: MASLSLAPVNIFKAGADEERAETARLTSFIGAIAIGDLVKSTLGPKGMDKILLSSGRDASLMVTNDGATILKNIGVDNPAAKVLVDMSRVQDDEVGDGTTSVTVLAAELLREAESLIAKKIHPQTIIAGWREATKAAREALLSSAVDHGSDEVKFRQDLMNIAGTTLSSKLLTHHKDHFTKLAVEAVLRLKGSGNLEAIHIIKKLGGSLADSYLDEGFLLDKKIGVNQPKRIENAKILIANTGMDTDKIKIFGSRVRVDSTAKVAEIEHAEKEKMKEKVERILKHGINCFINRQLIYNYPEQLFGAAGVMAIEHADFAGVERLALVTGGEIASTFDHPELVKLGSCKLIEEVMIGEDKLIHFSGVALGEACTIVLRGATQQILDEAERSLHDALCVLAQTVKDSRTVYGGGCSEMLMAHAVTQLANRTPGKEAVAMESYAKALRMLPTIIADNAGYDSADLVAQLRAAHSEGNTTAGLDMREGTIGDMAILGITESFQVKRQVLLSAAEAAEVILRVDNIIKAAPRKRVPDHHPC
Question: B1 was tested. Which binding did it give?
Answer: binds
